Experimental data as given in US20250099596A1, “TETRAHYDRONAPHTHALENE COMPOUND, AND PREPARATION METHOD THEREFOR AND USE THEREOF IN MEDICINE” (Jiangsu Hengrui Pharmaceuticals Co., Ltd., priority 2021, published 2025).
The name of at least one read-out is uncertain.

Assays:
Assay type in all cases: in vivo
[1] = Pharmacokinetic evaluation, beagle test; conditions: beagles, i.v., 0.5 mg/kg
Method: (§1) With beagles as test animals, the plasma concentrations of the compound of Example 26-1 and Comparative Example 1 were determined by LC/MS/MS at different time points after intragastric (i.g.)/intravenous (i.v.) administration to beagles. The pharmacokinetic behavior of the compound of the present disclosure in beagles was studied and its pharmacokinetic profile was evaluated.
The compound of Example 26-1 and Comparative Example 1 (see patent WO2018102725A1, Example 411), whose structure is shown below:
Sixteen beagles, of which half were male and half female, were evenly divided into 4 groups. The beagles were provided by Shanghai Medicilon Inc. The 4 groups were fasted overnight and then dosed intragastrically and intravenously. […]
The plasma concentrations of the test compounds were determined after administration of different concentrations of the test compounds to beagles: plasma samples (50 μL) were collected from beagles at various time points after administration, and proteins were precipitated with 500 μL of methanol (containing 100 ng/mL internal standard Verapamil) for each of the samples; the mixtures were vortexed for 1 min and centrifuged at 18,000 g for 7 min. […]

[2] = Pharmacokinetic evaluation, C57 mouse test; conditions: C57 mice, i.v., 1.0 mg/kg
Method: as §1, with “C57 mice” for “beagles”, “concentration” for “concentrations”, “was” for “and Comparative Example 1 were”, “C57 mice.” for “beagles.”
Eighteen female C57 mice were evenly divided into 2 groups and fasted overnight, and the 2 groups were dosed intragastrically and intravenously, respectively. The mice were provided by Zhejiang Vital River Laboratory Animal Technology Co., Ltd.
An appropriate amount of the compound of Example 26-1 was weighed out and mixed with 5% DMSO+5% Tween 80+90% normal saline to make a 0.1 mg/mL colorless clear solution (for the intragastric administration group) and a 0.1 mg/mL colorless clear solution (for the intravenous administration group).
The intragastric administration group: the dose was 2.0 mg/kg, and the volume was 0.2 mL/10 g. […]
The plasma concentration of the test compound was determined after administration of different concentrations of the test compound to C57 mice: plasma samples (25 μL) were collected from C57 mice at various time points after administration, proteins were precipitated with 200 μL of acetonitrile, and 50 μL of camptothecin (100 ng/mL) was added. […]

[3] = Pharmacokinetic evaluation, SD rat test; conditions: SD rats, i.v., 1.0 mg/kg
Method: as §1, with “SD rats” for “beagles”, “concentration” for “concentrations”, “was” for “and Comparative Example 1 were”, “SD rats.” for “beagles.”
Eight SD rats, of which half were male and half female, were evenly divided into 2 groups. The rats were provided by Zhejiang Vital River Laboratory Animal Technology Co., Ltd. The 2 groups were fasted overnight and then dosed intragastrically and intravenously, respectively. […]
The plasma concentration of the test compound was determined after administration of different concentrations of the test compound to SD rats: plasma samples (25 μL) were collected from SD rats at various time points after administration, and 50 μL of camptothecin (100 ng/mL) was added to each of the samples; proteins were precipitated with 200 μL of acetonitrile; the mixtures were vortexed for 5 min and centrifuged at 4000 rpm for 10 min. […]

| SMILES | Apparent distribution volume Vz/F [1] | Apparent distribution volume Vz/F [2] | Apparent distribution volume Vz/F [3] |
| --- | --- | --- | --- |
| O=C1CCC(N2Cc3cc(N4CCN(CC5CCN(c6ccc([C@@H]7c8ccc(O)cc8CC[C@@H]7c7ccccc7)cc6)CC5)CC4)ccc3C2=O)C(=O)N1 (stereo partly shown) [Comparative Example 1, reference compound] | 1.959 L/kg |  |  |
| CC(C)C[C@H]1CCc2cc(O)ccc2[C@H]1c1ccc(N2CCC(CN3CCN(c4ccc5c(c4)CN([C@H]4CCC(=O)NC4=O)C5=O)CC3)CC2)cc1 [Example 26-1, (S)-3-(5-(4-((1-(4-((1R,2R)-6-Hydroxy-2-isobutyl-1,2,3,4-tetrahydronaphthalen-1-yl)phenyl)piperidin-4-yl)methyl)piperazin-1-yl)-1-oxoisoindolin-2-yl)piperidine-2,6-dione] | 1.461 L/kg | 5.376 L/kg | 2.695 L/kg |
